{"source": "PubChem BioAssay AID1508597 (Cure First, 2020)", "purpose": "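Genes whose silencing sensitises or protects ovarian cancer cells against rucaparib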 (primary screen)", "cells": "human ovarian carcinoma lines grown from tumours: OCI-P5x (papillary serous) and OCI-C5x (clear cell)", "reagent": "siRNA pool against human genes, 1.25 pmol siRNA per well", "time to read-out": "72 h or 96 h, depending on the cell culture", "challenge": "rucaparib 20 µM (about IC30) or vehicle, present until read-out", "rucaparib or vehicle": "Rucaparib", "cell line": "OCI-C5x (clear cell)", "detection": "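ATP luminescence measured at 72 or 96 h according to the culture, then normalised and expressed as percent viability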", "direction": "viability, normalised: higher = more viable cells remaining", "hit rule": "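Active when normalised viability falls below 80 percent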", "calls": "active = viability under 80%; inactive = viability 80% or more", "note": "This is a random part of the about 2,100 reagents, in one setting of the screen. 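Calls flag viability under 80% in either arm, not effects specific to rucaparib; the reference for percent is not stated.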 Entries without a mark were called inactive. Some reagents were tested in more than one well and are listed for each. No sequences are given here. The record does not give: the 100% reference."}
{"Gene": "CHD1L", "technical replicate": "1", "viability, normalised (%)": "59.2 (active)"}
{"Gene": "CHD1L", "technical replicate": "2", "viability, normalised (%)": "62.6 (active)"}
{"Gene": "CHD1L", "technical replicate": "3", "viability, normalised (%)": "48.5 (active)"}
{"Gene": "BHLHE40", "technical replicate": "1", "viability, normalised (%)": "51.8 (active)"}
{"Gene": "BHLHE40", "technical replicate": "2", "viability, normalised (%)": "40.7 (active)"}
{"Gene": "BHLHE40", "technical replicate": "3", "viability, normalised (%)": "46.9 (active)"}
{"Gene": "EXO1", "technical replicate": "1", "viability, normalised (%)": "52.4 (active)"}
{"Gene": "EXO1", "technical replicate": "2", "viability, normalised (%)": "40.8 (active)"}
{"Gene": "EXO1", "technical replicate": "3", "viability, normalised (%)": "50.9 (active)"}
{"Gene": "RAD50", "technical replicate": "1", "viability, normalised (%)": "49.2 (active)"}
{"Gene": "RAD50", "technical replicate": "2", "viability, normalised (%)": "46.4 (active)"}
{"Gene": "RAD50", "technical replicate": "3", "viability, normalised (%)": "44.8 (active)"}
{"Gene": "LSM1", "technical replicate": "1", "viability, normalised (%)": "58.1 (active)"}
{"Gene": "LSM1", "technical replicate": "2", "viability, normalised (%)": "52.4 (active)"}
{"Gene": "LSM1", "technical replicate": "3", "viability, normalised (%)": "46.3 (active)"}
{"Gene": "BRIP1", "technical replicate": "1", "viability, normalised (%)": 82.3}
{"Gene": "BRIP1", "technical replicate": "1", "viability, normalised (%)": "73 (active)"}
{"Gene": "BRIP1", "technical replicate": "2", "viability, normalised (%)": "66.3 (active)"}
{"Gene": "BRIP1", "technical replicate": "2", "viability, normalised (%)": "74.9 (active)"}
{"Gene": "BRIP1", "technical replicate": "3", "viability, normalised (%)": "77.5 (active)"}
{"Gene": "BRIP1", "technical replicate": "3", "viability, normalised (%)": "61.4 (active)"}
{"Gene": "DDX47", "technical replicate": "1", "viability, normalised (%)": "57.7 (active)"}
{"Gene": "DDX47", "technical replicate": "2", "viability, normalised (%)": "42.6 (active)"}
{"Gene": "DDX47", "technical replicate": "3", "viability, normalised (%)": "46.7 (active)"}
{"Gene": "MED4", "technical replicate": "1", "viability, normalised (%)": "47.7 (active)"}
{"Gene": "MED4", "technical replicate": "2", "viability, normalised (%)": "31.5 (active)"}
{"Gene": "MED4", "technical replicate": "3", "viability, normalised (%)": "30.1 (active)"}
{"Gene": "RINT1", "technical replicate": "1", "viability, normalised (%)": "55 (active)"}
{"Gene": "RINT1", "technical replicate": "2", "viability, normalised (%)": "52.2 (active)"}
{"Gene": "RINT1", "technical replicate": "3", "viability, normalised (%)": "54.6 (active)"}
{"Gene": "ZZZ3", "technical replicate": "1", "viability, normalised (%)": 91.7}
{"Gene": "ZZZ3", "technical replicate": "2", "viability, normalised (%)": "59.2 (active)"}
{"Gene": "ZZZ3", "technical replicate": "3", "viability, normalised (%)": "59.5 (active)"}

4 neighbouring entries from above, quoted:
{"Gene": "RINT1", "technical replicate": "3", "viability, normalised (%)": "54.6 (active)"}
{"Gene": "ZZZ3", "technical replicate": "1", "viability, normalised (%)": 91.7}
{"Gene": "ZZZ3", "technical replicate": "2", "viability, normalised (%)": "59.2 (active)"}
{"Gene": "ZZZ3", "technical replicate": "3", "viability, normalised (%)": "59.5 (active)"}
